{"source": "PubChem BioAssay AID504791 (Drosophila RNAi Screening Center, 2011)", "test": "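Genes whose knock-down strengthens or weakens small-RNA reporter silencing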 (primary screen)", "cells": "Drosophila S2-derived reporter cells", "reagents": "long dsRNA against Drosophila genes, about 150-250 ng dsRNA per well (siRNA assay); about 80-120 ng (miRNA assay)", "time to read-out": "about 5 days (siRNA assay); about 4 days (miRNA assay)", "treatment": "copper sulfate induction of reporters: 25 µM (siRNA assay); 200 mM stated (miRNA assay), 1-2 days before reading", "measured": "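Per-well ratio of Renilla over firefly light, expressed relative to that plate's average ratio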", "units": "stable assay Renilla, run 1 in luminescence; stable assay firefly, run 1 in luminescence", "hit rule": "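a well was a first-pass pick when its plate-scaled ratio rose above 1.5 (siRNA assay) or 1.6 (miRNA assay), or dropped below 0.6; a gene counted only if two separate dsRNAs agreed on retest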", "note": "In all, the deposit lists about 23,000 reagents; this is a random part of those that have a named target and a result. Of all reagents, 199 (0.86%) were called active. 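Plate-scaled ratios behind the calls are not deposited; printed light signals are raw; many rows marked increased or decreased are still called inactive.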 Not given: the direction of the score."}
{"Gene": "CG11498 (GeneID 43585)", "DRSC id": "DRSC14315", "stable assay Renilla, run 1": 7690, "stable assay firefly, run 1": 4.48e5, "call": "inactive"}
{"Gene": "CG1889 (GeneID 31928)", "DRSC id": "DRSC18195", "stable assay Renilla, run 1": 6662, "stable assay firefly, run 1": 3.59e5, "call": "inactive"}
{"Gene": "whd (GeneID 36109)", "DRSC id": "DRSC07351", "stable assay Renilla, run 1": 7866, "stable assay firefly, run 1": 3.81e5, "call": "inactive"}
{"Gene": "Jhbp14 (GeneID 34728)", "DRSC id": "DRSC01988", "stable assay Renilla, run 1": 7577, "stable assay firefly, run 1": 4.97e5, "call": "inactive"}
{"Gene": "danr (GeneID 43020)", "DRSC id": "DRSC14651", "stable assay Renilla, run 1": 8354, "stable assay firefly, run 1": 4.78e5, "call": "inactive"}
{"Gene": "CG14258 (GeneID 43260)", "DRSC id": "DRSC14753", "stable assay Renilla, run 1": 6676, "stable assay firefly, run 1": 3.42e5, "call": "inactive"}
{"Gene": "CG17029 (GeneID 39740)", "DRSC id": "DRSC10240", "stable assay Renilla, run 1": 7119, "stable assay firefly, run 1": 3.12e5, "call": "inactive"}
{"Gene": "CG4424 (GeneID 42390)", "DRSC id": "DRSC15576", "stable assay Renilla, run 1": 7639, "stable assay firefly, run 1": 2.62e5, "call": "inactive"}

Copied from the listing (2 entries):
{"Gene": "CG14258 (GeneID 43260)", "DRSC id": "DRSC14753", "stable assay Renilla, run 1": 6676, "stable assay firefly, run 1": 3.42e5, "call": "inactive"}
{"Gene": "CG17029 (GeneID 39740)", "DRSC id": "DRSC10240", "stable assay Renilla, run 1": 7119, "stable assay firefly, run 1": 3.12e5, "call": "inactive"}

Further reagents follow.
{"Gene": "CG9686 (GeneID 31921)", "DRSC id": "DRSC18439", "stable assay Renilla, run 1": 4588, "stable assay firefly, run 1": 3.25e5, "call": "inactive"}
{"Gene": "fest (GeneID 37220)", "DRSC id": "DRSC07349", "stable assay Renilla, run 1": 5815, "stable assay firefly, run 1": 2.62e5, "call": "inactive"}
{"Gene": "CAH13 (GeneID 36126)", "DRSC id": "DRSC06128", "stable assay Renilla, run 1": 7246, "stable assay firefly, run 1": 3.38e5, "call": "inactive"}
{"Gene": "Sac1 (GeneID 38137)", "DRSC id": "DRSC08622", "stable assay Renilla, run 1": 10569, "stable assay firefly, run 1": 5.22e5, "call": "inactive"}
